Earlier results in patent US10045951B2, “Flaxseed lignan complex and its use thereof” (priority 2007, dated 2018).
For at least one compound, name, drawing or mass did not settle the structure.

Conditions: cited from earlier work

COc1cc(C[C@@H](CO[C@@H]2O[C@H](CO)[C@@H](O)[C@H](O)[C@H]2O)[C@H](CO[C@@H]2O[C@H](CO)[C@@H](O)[C@H](O)[C@H]2O)Cc2ccc(O)c(OC)c2)ccc1O [SDG, secoisolariciresinol diglucoside]
ex vivo antioxidant activity: specifically inhibiting linoleic acid lipid peroxidation
